Paper doi:10.1101/241331
No constants are given. Whether binding was seen depends on the method and setting. In cells and extracts the contact can be indirect. Some binding calls cover weakened binding; strength is not graded here.

Protein sequences, listed by entry. Tags and fused reporters are not part of them.
UniProt Q8C7M3: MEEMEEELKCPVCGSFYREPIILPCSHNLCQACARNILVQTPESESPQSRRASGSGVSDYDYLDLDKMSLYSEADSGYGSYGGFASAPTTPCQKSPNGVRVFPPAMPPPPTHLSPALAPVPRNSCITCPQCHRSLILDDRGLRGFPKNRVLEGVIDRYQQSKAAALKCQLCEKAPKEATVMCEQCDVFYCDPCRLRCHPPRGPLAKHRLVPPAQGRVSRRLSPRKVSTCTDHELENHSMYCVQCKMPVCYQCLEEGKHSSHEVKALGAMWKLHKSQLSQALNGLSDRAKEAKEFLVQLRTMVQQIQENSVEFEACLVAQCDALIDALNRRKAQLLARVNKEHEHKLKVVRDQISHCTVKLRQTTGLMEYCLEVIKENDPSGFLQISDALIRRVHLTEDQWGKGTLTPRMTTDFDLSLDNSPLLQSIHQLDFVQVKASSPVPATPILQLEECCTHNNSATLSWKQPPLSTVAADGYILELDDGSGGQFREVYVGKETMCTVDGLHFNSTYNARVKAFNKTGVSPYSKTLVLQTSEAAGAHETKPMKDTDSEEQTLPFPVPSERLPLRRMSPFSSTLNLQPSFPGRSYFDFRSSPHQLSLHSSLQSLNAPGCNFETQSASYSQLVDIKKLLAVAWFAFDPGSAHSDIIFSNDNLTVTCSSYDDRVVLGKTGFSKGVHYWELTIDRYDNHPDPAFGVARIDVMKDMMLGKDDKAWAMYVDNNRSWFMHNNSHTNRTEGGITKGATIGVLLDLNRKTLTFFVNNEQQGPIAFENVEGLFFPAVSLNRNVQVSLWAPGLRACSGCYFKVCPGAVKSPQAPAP

Molecular target: endogenous TRIM9 (mouse embryonic cortical neurons) (mouse (endogenous in embryonic cortical neurons)) (UniProt Q8C7M3)
Test: co-IP

- binding: binds
B1: endogenous TRIM67 (mouse embryonic cortical neurons) (protein, UniProt Q505D9 1-768)
chain: MEEELKCPVCGSLFREPIILPCSHNVCLPCARTIAVQTPDGEQHLPPPLLLSRGAAAAATPPDQDAAAGATSGGAGANTAGGLGGGATGGGDHADKLSLYSETDSGYGSYTPSLKSPNGVRVLPMVPAPPGSSAAAARGAACSSLCSSSSSITCPQCHRSASLDHRGLRGFQRNRLLEGIVQRYQQGRGVVPGAAAAPAVAICQLCDRTPPEPAATLCEQCDVLYCATCQLKCHPSRGPFAKHRLVQPPPPPTPPEATPAVTGTSTASSAGGCRSPGGAGASAPRKFPTCPEHEMENYSMYCVSCRSPVCYMCLEEGRHSKHEVKPLGATWKQHKAQLSQALNGVSDKAKEAKEFLVQLKNILQQIQENGLDYEACLVAQCDALVDALTRQKAKLLTKVTKEREHKLKMVWDQINHCTLKLRQSTGLMEYCLEVIKEDDPSGFLQISDALIKRVQTSQEQWVKGALEPKVSAEFDLTLDSEPLLQAIHQLDFVQMKLPPVPLLQLEKCCTRNNSVTLAWRTPPFTHSPAEGYILELDDGDGGQFREVYVGKETLCTIDGLHFNSTYNARVKAFNSSGVGPYSKTVVLQTSDVAWFTFDPNSGHRDIILSNDNQTATCSSYDDRVVLGTAAFSKGVHYWELHVDRYDNHPDPAFGVARASVVKDMMLGKDDKAWAMYVDNNRSWFMHCNSHTNRTEGGVCKGATVGVLLDLNKHTLTFFINGQQQGPTAFSHVDGVFMPALSLNRNVQVTLHTGLEVPTNLGRPKLSGN
